## Primary screen of a compound library

The chains behind the UniProt entries cited, without tags or fusion partners.
UniProt E9BF75, entry or part of it: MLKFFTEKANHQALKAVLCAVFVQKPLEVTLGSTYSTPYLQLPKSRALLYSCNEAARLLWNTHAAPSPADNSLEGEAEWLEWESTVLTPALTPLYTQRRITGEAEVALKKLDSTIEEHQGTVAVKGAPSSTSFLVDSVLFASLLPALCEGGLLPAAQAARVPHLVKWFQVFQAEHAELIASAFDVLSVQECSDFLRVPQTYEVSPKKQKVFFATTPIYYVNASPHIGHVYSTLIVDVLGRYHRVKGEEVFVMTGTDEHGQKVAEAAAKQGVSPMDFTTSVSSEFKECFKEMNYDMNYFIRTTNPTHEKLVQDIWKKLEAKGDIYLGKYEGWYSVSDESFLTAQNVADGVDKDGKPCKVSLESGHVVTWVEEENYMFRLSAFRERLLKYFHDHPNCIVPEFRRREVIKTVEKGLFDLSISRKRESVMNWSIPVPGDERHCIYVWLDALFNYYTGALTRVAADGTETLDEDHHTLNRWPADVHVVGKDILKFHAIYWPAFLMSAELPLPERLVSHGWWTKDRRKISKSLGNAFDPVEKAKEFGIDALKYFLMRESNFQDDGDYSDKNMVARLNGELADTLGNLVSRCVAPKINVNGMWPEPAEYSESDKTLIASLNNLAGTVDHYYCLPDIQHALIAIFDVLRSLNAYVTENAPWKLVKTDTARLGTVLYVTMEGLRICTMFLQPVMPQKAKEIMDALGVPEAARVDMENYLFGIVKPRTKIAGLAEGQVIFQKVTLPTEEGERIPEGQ

LdMetRS: 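Primary screen of methionyl-tRNA synthetase; the read-out is not stated. Target: Methionyl-tRNA synthetase (putative), Leishmania donovani (UniProt E9BF75). The test concentration is not given. The values are filed as inhibition. About 68,000 compounds were tested under these conditions; 0.035% (about 24) showed 50% or more at least once.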
Mtb heat-shock: 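Assay on Mycobacterium tuberculosis, filed only as a heat shock assay from Cornell; the read-out is not stated. The concentration is filed as 10 mM, unlikely as a test dose, so the dose is not known. The record gives no direction; compounds that gave an IC50 in retests scored well above the rest, so higher reads as stronger inhibition. About 69,000 compounds were tested under these conditions; 1.4% (about 930) showed 50% or more at least once.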

Results are percentages, as filed.
The record does not define 0% and 100%; most values in the screen are far below 50% and negative numbers occur (in some assays of this library far below -100).
This is an unselected part of the compounds tested.
A dash means the value is not listed here; it may have been measured.

Compound	LdMetRS	Mtb heat-shock
CCc1nc(CN2CCCC2C(=O)NC2CC2)cs1 (stereo not drawn)	5.075	1.496
CS(=O)(=O)CCCSc1n[nH]c(-c2ccc3c(c2)CCC3)n1	17.23	-13.56
CNc1cc(CNC(=O)c2ccnc(OC)c2)nc(-c2ccncc2)n1	7.294	-14.38
COCCc1noc(CN2CCCC2c2noc(C)n2)n1 (stereo not drawn)	7.902	-15.16
CC(C)S(=O)(=O)N1CCOC(CCc2ccccc2)C1 (stereo not drawn)	7.945	-24.09
CCn1ccnc1CN1CCCN(C(=O)Cn2nc(C)cc2C)CC1	0	6.917
CC(C)c1ccc(C(=O)O)cc1S(=O)(=O)Nc1ccc(=O)n(C)c1	4.348	10.97
CCCS(=O)(=O)N1CCC2(CC1)CN(c1ccccn1)CCO2	3.734	-
COC(=O)C(NC(=O)C1CC1)c1cc(F)ccc1F (stereo not drawn)	23.86	22.62
Cc1cncc(C(=O)NCC2COCc3c(C)nnn3C2)c1 (stereo not drawn)	11.83	-5.249
Cc1sc(CNS(N)(=O)=O)nc1-c1ccc(Cl)cc1	19.05	-32.39
COCC(=O)N1CC[C@@H]2CN(Cc3ccccc3)S(=O)(=O)[C@@H]2CC1	8.889	-
CCOc1ccnc(N2CCCN(c3nc(CC)ns3)CC2)n1	10.84	7.76
COc1cccc2c3c(c(=O)[nH]c12)CC(C)(C)O3	16.84	5.856
Cc1cncc(C(=O)N2CCOc3nc(C)ccc32)c1	9.028	10.79
CN(C)CCn1c2c(ccc1=O)CCN(C(=O)c1ccoc1)CC2	7.614	-
COCCNC(=O)C(C)N1CCN(C)CC1 (stereo not drawn)	10.5	-
CCOCC1CN(C(=O)c2cnoc2C)Cc2cn(C)nc21 (stereo not drawn)	15.58	-
Cn1c(C(=O)N2CCOCC2)nc2c1CCN(c1ncccn1)C2	8.333	-10.21
[H][C@@]12CCN(S(=O)(=O)c3cccs3)[C@]1([H])CCC(=O)N2CCOC	-	-22.54
COC[C@]12COC[C@H]1CN(Cc1ccc3ccccc3n1)C2	10.22	-
COc1cccc(CN2CCC3(CC(Nc4ccncn4)C3)C2)c1F (stereo not drawn)	16.95	-10.31
CC(c1nc(C2CC2)no1)N1CCN(Cc2cccc(C#N)c2)CC1 (stereo not drawn)	12.88	32.35
CC(=O)N1CCC(c2nccnc2Nc2cnccn2)CC1	11.02	19.92
Cc1nn(C)c(C)c1S(=O)(=O)NCC(C)(O)c1ccc2c(c1)OCO2 (stereo not drawn)	6.475	4.643
Cc1cc(-c2cnc(N3CCSCC3)nc2C(C)C)on1	2.907	1.411
OC1CN(Cc2ccccc2)CCN(c2ccncc2)C1 (stereo not drawn)	8.242	-7.312
CCC(CC)c1cc(CNC(=O)N2CCCC(N(C)C)C2)on1 (stereo not drawn)	0.3717	-1.759
O=c1c(CN2CCOCC2)coc(O)c1CN1CCOCC1	9.162	1.114
CC(C)COC(C)C(=O)N1CCCCCC1 (stereo not drawn)	0.2545	8.77
COc1ccc(NC(=O)Cn2nc(C)c(C(C)=O)c2C)cc1	7.194	105.6
O=C(O)[C@@]12CN(c3cnccn3)C[C@@H]1CN(C1CCCC1)C2	19.79	-
O=C(O)C(F)(F)F.O=C(O)C(F)(F)F.O=C1CC2(CCN(Cc3cccnc3)C2)CN1c1ccc2c(c1)OCO2 (stereo not drawn)	-	-25.9
CC(C)c1ccc(CN[C@@H]2COC[C@H]2c2ccc(F)cc2)cc1	15.43	32.8
COc1cc(N2C[C@@H]3COC[C@]3(C(=O)NCc3ccccn3)C2)ncn1	9.343	-
Cn1cc(CN2CCn3c(CNC(=O)c4cccn4C)cnc3C2)cn1.O=C(O)C(F)(F)F	-	0.7368
CC(C)N1CCn2c(COCC3CCOCC3)cnc2C1C (stereo not drawn)	10.1	-
CCn1cnnc1C1CCN(C(=O)c2cccc(C)c2C)CC1	2.564	-20.36
O=C(O)C(F)(F)F.[H][C@]12C[C@@H](C(=O)N(C)C)CO[C@@]1([H])CCN(c1ncc(F)cn1)C2	-	5.292
CC(Nc1cccc2c1OCCO2)C(=O)Nc1ccc(Cl)cc1 (stereo not drawn)	13.05	3.721
Cc1nc(CN2CCc3ncnc(-c4cccnc4)c3CC2)cs1	-5.584	-
c1cnnc(N2CCCC2CNCc2nc3ccccc3o2)c1 (stereo not drawn)	19.5	103.1
Cc1nc(CN2CCN(C(=O)c3ccc(=O)n(C)c3)CC2)cs1	4.032	-1.486
CC(C)(C)c1ncc(CNCC2CN(C3CC3)CCO2)s1 (stereo not drawn)	19.63	1.738
CC(C)C(C#N)N1CCN(C(=O)c2cc(-c3ccccn3)no2)CC1 (stereo not drawn)	8.635	-4.833
CCOc1ccc(-n2ccc3nc(N4CCCC4)ncc3c2=O)cc1	-1.818	4.014
CN(C)CC1(O)CCN(S(=O)(=O)c2ccc(F)cc2)C1 (stereo not drawn)	7.877	-28.13
O=C(c1cccc(F)c1)N(CCCO)S(=O)(=O)c1cccs1	2.835	-11.65
CCOc1ccccc1C(=O)N(C)C(C)c1ccc(S(C)(=O)=O)cc1 (stereo not drawn)	5.415	-6.338
COc1c(C2CCCN2C(=O)c2ccc(C#N)c(C)n2)c(C)nn1C (stereo not drawn)	24.36	0.4141

The first 6 entries again:

{"compound": "CCc1nc(CN2CCCC2C(=O)NC2CC2)cs1", "stereo": "stereo not drawn", "LdMetRS": 5.075, "Mtb heat-shock": 1.496}
{"compound": "CS(=O)(=O)CCCSc1n[nH]c(-c2ccc3c(c2)CCC3)n1", "LdMetRS": 17.23, "Mtb heat-shock": -13.56}
{"compound": "CNc1cc(CNC(=O)c2ccnc(OC)c2)nc(-c2ccncc2)n1", "LdMetRS": 7.294, "Mtb heat-shock": -14.38}
{"compound": "COCCc1noc(CN2CCCC2c2noc(C)n2)n1", "stereo": "stereo not drawn", "LdMetRS": 7.902, "Mtb heat-shock": -15.16}
{"compound": "CC(C)S(=O)(=O)N1CCOC(CCc2ccccc2)C1", "stereo": "stereo not drawn", "LdMetRS": 7.945, "Mtb heat-shock": -24.09}
{"compound": "CCn1ccnc1CN1CCCN(C(=O)Cn2nc(C)cc2C)CC1", "LdMetRS": 0, "Mtb heat-shock": 6.917}

The values are deposited in ChEMBL (CHEMBL3988442, “University of Dundee, Small-Polar-MMV Screening Library” (2021)).